Assay results from publication PMC5173319, “Crenactin forms actin-like double helical filaments regulated by arcadin-2” (eLife, 2016).
No constants are given. Whether binding was seen depends on the method and setting. Some binding calls cover weakened binding; strength is not graded here.

By UniProt entry, the sequences of proteins in these tests, tags left out.
UniProt A3MWN5: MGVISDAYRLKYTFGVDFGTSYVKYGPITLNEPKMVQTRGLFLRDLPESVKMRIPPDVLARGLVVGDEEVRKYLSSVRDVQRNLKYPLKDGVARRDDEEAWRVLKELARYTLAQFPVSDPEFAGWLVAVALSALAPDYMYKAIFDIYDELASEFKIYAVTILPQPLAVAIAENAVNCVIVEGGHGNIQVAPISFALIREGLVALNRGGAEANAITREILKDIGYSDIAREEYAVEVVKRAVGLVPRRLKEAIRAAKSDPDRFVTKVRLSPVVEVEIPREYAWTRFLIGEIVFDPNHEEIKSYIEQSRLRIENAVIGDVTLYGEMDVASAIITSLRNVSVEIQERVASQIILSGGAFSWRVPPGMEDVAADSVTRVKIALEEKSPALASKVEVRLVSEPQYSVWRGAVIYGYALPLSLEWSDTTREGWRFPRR

What was measured:
[1] = molecular target: Pyrobaculum calidifontis crenactin (Pyrobaculum calidifontis) (UniProt A3MWN5); assay: SPR; crenactin immobilised by amide coupling on CM5 chip (~700 RU), Biacore T200, PBS-0.005% Tween 20, 20°C; arcadin-2 or arcadin-2ΔC in 1:2 dilution series from 2 µM; kinetic fits, Kd = koff/kon; both purified
[2] = molecular target: Pyrobaculum calidifontis crenactin (Pyrobaculum calidifontis) (UniProt A3MWN5); assay: SEC; crenactin and arcadin-2 co-expressed and purified together; size exclusion profile with Coomassie-stained SDS-PAGE; both purified

binding [1] | binding [2] | Binder
no binding (tested: 2 µM) |  | arcadin-2 C-terminal truncation mutant (arcadin-2ΔC, residues 1-167) (domain or fragment, UniProt A3MWN6 1-167) MDFPKVLLIRHFTEVLGMKYAGEGGEVLWFEEGLNRVAVGIYFTDLYEEAELYKRVGALMGLGASKVFLAVLPDALAFVDPRYFKANGVGLVVVDPAKGVDGVEVKIFARARPAAVEPLKIDAVKAALHEYLASELKRVEESLFEKVRRYVDQRVEEVKRALQAVEE
 | binds | Pyrobaculum calidifontis arcadin-2 (protein, UniProt A3MWN6 1-203) MDFPKVLLIRHFTEVLGMKYAGEGGEVLWFEEGLNRVAVGIYFTDLYEEAELYKRVGALMGLGASKVFLAVLPDALAFVDPRYFKANGVGLVVVDPAKGVDGVEVKIFARARPAAVEPLKIDAVKAALHEYLASELKRVEESLFEKVRRYVDQRVEEVKRALQAVEEAKRAAPPVQRAAAESAQEPRGGIGENEWVKILRSKR
